The supplement of paper PMC10849652
The other results are listed elsewhere or left out.

Amino acid sequences for entries named in this document (tags omitted). A change or cut given only in a name is not applied to a line headed by its entry.
UniProt Q9NX14, whole entry, looked up: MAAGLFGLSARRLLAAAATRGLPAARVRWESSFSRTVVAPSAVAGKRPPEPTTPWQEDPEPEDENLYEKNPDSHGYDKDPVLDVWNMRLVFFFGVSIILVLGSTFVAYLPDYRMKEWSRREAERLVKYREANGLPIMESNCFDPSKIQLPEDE
UniProt Q9NX24: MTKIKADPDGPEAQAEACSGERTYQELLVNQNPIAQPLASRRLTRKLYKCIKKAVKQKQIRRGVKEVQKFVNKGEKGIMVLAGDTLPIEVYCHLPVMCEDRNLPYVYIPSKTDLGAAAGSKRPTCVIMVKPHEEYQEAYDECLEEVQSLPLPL
UniProt Q9UMX5: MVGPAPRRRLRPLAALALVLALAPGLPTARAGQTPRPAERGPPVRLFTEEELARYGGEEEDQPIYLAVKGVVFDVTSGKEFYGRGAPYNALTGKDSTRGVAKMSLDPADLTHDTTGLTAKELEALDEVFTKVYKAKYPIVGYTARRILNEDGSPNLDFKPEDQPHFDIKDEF
UniProt Q0ZGT2: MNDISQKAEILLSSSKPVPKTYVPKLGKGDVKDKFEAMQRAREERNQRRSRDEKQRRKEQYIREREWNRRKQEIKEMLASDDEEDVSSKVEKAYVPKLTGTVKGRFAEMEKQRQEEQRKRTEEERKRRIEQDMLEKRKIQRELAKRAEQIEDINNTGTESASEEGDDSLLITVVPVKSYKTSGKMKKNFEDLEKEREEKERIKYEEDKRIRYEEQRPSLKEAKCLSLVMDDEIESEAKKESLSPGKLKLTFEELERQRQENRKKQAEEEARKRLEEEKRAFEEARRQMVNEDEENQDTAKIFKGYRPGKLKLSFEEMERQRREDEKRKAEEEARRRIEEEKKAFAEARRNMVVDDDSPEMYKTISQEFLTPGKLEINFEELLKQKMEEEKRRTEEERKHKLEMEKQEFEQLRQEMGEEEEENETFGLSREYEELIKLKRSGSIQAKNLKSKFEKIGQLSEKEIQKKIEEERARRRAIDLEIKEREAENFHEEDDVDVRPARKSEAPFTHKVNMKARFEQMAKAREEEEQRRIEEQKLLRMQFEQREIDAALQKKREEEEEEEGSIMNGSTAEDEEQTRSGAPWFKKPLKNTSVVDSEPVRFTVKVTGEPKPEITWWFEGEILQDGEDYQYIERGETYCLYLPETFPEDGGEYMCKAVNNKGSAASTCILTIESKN
UniProt Q9P032: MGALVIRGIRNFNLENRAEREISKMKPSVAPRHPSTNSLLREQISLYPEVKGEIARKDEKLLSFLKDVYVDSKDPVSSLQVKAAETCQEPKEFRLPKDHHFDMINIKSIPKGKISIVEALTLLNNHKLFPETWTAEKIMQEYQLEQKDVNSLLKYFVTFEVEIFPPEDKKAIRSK
UniProt Q8NCF5: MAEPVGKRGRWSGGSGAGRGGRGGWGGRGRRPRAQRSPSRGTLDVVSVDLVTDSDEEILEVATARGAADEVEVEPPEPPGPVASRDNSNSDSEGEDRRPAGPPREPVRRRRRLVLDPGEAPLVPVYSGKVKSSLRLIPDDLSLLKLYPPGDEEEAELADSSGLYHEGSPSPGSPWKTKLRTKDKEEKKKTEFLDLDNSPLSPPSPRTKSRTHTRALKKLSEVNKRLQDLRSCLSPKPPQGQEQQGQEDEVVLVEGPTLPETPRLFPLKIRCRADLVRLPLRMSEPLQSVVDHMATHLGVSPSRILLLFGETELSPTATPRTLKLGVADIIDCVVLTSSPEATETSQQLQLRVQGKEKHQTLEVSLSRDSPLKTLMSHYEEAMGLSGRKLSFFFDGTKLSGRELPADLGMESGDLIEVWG
UniProt O00217, whole entry, looked up: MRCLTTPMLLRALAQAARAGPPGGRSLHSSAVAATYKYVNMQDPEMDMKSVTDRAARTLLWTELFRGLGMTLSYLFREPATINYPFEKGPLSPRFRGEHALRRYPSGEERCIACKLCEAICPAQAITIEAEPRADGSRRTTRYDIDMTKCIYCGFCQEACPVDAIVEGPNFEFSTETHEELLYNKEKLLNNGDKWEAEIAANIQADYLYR
UniProt Q12986: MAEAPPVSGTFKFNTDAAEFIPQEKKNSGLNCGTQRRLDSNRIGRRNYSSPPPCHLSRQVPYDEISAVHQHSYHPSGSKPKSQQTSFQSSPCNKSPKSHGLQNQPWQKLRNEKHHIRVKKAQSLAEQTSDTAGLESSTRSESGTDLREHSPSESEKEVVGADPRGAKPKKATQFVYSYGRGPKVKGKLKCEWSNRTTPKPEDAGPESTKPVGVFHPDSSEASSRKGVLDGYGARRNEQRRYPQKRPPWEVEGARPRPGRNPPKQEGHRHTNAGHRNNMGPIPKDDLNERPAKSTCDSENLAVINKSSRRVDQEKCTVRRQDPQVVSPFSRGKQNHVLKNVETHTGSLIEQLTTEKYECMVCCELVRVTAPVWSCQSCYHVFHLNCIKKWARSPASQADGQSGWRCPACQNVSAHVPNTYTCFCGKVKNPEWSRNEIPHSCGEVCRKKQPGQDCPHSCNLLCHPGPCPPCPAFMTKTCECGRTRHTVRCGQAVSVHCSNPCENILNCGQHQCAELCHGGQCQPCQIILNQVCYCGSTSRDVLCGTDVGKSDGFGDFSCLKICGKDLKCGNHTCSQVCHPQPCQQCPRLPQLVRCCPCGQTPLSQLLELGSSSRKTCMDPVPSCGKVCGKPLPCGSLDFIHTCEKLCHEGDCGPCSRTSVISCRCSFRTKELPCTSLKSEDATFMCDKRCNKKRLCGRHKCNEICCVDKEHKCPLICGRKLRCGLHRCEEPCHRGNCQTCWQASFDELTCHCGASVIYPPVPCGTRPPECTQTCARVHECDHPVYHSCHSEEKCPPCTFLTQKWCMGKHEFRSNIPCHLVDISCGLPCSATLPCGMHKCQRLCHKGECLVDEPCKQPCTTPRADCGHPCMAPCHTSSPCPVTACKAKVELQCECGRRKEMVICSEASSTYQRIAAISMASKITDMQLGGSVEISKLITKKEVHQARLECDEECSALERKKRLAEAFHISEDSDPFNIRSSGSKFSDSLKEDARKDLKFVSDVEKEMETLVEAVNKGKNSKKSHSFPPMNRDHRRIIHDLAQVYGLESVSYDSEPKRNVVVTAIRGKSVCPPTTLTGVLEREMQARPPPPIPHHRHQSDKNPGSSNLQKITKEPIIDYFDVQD
UniProt Q92692, whole entry, looked up: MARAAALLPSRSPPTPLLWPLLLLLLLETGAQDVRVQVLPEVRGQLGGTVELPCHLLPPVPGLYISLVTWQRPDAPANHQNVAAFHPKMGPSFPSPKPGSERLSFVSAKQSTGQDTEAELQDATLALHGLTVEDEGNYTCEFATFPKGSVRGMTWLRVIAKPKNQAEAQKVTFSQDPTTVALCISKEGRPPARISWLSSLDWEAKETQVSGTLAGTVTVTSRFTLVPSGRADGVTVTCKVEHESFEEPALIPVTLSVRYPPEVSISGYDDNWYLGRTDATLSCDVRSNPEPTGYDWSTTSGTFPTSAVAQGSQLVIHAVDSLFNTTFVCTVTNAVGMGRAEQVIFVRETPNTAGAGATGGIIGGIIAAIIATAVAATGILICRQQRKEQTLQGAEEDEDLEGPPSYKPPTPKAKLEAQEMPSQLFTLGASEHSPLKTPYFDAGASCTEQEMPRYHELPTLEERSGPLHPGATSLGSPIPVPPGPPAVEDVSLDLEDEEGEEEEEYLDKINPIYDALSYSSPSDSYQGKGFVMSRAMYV
UniProt O95182, whole entry, looked up: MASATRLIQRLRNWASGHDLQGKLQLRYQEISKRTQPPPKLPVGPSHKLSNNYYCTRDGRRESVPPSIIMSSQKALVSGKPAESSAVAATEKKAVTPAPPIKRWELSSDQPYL
UniProt Q6KC79: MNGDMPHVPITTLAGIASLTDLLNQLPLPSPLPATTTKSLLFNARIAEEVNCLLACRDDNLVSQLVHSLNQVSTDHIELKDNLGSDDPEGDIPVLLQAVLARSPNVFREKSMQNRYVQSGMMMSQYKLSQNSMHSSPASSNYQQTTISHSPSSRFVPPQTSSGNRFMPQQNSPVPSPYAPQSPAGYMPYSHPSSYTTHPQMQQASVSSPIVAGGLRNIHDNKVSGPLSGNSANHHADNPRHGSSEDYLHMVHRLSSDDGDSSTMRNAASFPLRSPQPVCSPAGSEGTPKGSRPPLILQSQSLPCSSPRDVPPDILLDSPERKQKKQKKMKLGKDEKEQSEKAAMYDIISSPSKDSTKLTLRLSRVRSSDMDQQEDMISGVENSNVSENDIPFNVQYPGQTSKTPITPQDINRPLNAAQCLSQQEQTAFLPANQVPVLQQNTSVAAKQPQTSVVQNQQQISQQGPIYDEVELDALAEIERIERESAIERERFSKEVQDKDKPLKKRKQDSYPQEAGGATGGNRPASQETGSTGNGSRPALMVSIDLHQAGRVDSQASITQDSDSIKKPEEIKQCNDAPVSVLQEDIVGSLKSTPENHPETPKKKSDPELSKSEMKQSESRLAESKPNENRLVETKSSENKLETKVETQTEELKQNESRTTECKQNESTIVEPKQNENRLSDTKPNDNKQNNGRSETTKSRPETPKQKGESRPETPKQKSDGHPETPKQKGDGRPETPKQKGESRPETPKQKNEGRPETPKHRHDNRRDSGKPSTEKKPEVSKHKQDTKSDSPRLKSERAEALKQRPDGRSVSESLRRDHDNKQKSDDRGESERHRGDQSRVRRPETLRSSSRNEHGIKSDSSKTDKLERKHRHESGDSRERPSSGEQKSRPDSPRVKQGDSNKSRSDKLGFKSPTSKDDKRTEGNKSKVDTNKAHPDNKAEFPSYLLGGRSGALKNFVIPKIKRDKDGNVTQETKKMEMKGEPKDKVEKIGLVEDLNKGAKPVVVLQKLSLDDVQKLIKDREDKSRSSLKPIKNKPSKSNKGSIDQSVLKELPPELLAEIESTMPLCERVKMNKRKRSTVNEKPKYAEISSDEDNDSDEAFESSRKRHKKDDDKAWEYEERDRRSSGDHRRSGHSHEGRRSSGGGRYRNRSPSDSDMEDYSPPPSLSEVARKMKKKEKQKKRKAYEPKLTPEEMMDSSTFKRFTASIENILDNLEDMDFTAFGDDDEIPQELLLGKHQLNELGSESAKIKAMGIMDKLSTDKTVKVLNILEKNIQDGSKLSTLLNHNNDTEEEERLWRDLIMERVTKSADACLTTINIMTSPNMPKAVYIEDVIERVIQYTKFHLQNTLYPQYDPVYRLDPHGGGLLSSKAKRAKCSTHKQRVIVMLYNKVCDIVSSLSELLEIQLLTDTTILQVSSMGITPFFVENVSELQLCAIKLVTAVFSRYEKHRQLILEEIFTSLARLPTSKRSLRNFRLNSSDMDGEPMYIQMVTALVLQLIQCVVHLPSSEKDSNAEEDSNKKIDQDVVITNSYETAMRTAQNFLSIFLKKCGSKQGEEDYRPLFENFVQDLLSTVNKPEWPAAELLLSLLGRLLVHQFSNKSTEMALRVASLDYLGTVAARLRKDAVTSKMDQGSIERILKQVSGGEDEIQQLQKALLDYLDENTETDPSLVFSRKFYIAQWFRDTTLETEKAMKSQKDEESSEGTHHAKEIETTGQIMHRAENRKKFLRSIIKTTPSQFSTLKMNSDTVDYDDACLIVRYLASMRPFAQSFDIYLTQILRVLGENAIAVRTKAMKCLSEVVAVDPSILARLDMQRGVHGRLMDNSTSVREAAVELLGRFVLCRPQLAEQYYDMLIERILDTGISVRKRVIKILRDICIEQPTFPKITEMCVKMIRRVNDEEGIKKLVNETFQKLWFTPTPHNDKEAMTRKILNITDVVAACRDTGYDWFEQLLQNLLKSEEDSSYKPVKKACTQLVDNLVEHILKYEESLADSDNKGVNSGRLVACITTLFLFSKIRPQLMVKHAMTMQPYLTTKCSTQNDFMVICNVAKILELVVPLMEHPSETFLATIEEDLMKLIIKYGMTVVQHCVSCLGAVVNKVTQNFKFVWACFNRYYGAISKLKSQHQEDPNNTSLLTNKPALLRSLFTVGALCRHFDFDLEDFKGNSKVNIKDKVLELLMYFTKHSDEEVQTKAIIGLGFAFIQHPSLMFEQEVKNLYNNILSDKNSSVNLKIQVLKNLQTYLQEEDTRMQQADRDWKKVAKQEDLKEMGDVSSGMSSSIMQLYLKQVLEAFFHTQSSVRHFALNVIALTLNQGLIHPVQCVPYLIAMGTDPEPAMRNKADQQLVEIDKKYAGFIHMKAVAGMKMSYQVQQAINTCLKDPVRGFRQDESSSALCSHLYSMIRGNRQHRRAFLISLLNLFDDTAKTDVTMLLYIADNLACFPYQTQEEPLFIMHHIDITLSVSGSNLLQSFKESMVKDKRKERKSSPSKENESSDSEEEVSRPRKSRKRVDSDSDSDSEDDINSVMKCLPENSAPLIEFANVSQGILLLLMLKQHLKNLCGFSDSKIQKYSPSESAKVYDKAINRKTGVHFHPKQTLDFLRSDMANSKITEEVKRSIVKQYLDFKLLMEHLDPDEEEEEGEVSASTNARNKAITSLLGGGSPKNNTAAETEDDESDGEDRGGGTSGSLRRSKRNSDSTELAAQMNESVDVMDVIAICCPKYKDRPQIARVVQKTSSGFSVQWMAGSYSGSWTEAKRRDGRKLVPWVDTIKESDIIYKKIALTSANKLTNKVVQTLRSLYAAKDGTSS

Key:
Experiment in all cases: log2 fold change, soluble protein after heating vs DMSO (PISA); higher = thermal stabilisation; K562 lysate, 10 uM; active = over 0.2 and 3.5 SD of the protein, either way, in both replicates (recomputed)
[1] = compound: CN1CC[C@H](c2c(O)cc(O)c3c(=O)cc(-c4ccccc4Cl)oc23)[C@H](O)C1 [alvocidib]
Summary of the method: (§1)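 The values are log-two fold changes in thermal stability compared with solvent controls and come from duplicates. They were obtained by TMTpro 16plex LC-MS/MS, with channel sums equalised, on the supernatant after 21,000xg for 90 min. That supernatant came from crude K562 extract at 1 mg/mL protein treated with 10 μM compound for 30 min, heated for 3 min across 48°C-58°C, pooled and brought to 0.5% NP-40 at 4°C.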

[2] = compound: CN1CCc2c(c3ccccc3n2Cc2ccc(C(=O)NO)cc2)C1 [Tubastatin A]
Summary of the method: as §1

[3] = compound: CNC(=O)C1=CC=CC=C1NC2=NC(=NC=C2Cl)NC3=C(C=C(C=C3)N4CCOCC4)OC
Summary of the method: as §1

[4] = compound: CNC(=O)c1ccc(Nc2ncc(C(F)(F)F)c(NCc3nccnc3N(C)S(C)(=O)=O)n2)cc1 [defactinib]
Summary of the method: as §1

[5] = compound: CNc1nc(-c2ccc3c(N)n[nH]c3c2)cc(N2C[C@@H](C(=O)NC3CCCCC3)CC[C@H]2C)n1
Summary of the method: as §1

[6] = compound: COC(=O)N[C@@H](C)CNc1nccc(-c2cn(C(C)C)nc2-c2cc(Cl)cc(NS(C)(=O)=O)c2F)n1 [encorafenib]
Summary of the method: as §1

[7] = compound: COC(=O)[C@H](CCSC)NC(=O)C1=C(C=C(C=C1)NC[C@H](CS)N)C2=CC=CC=C2
Summary of the method: as §1

[8] = compound: COc1cc(Nc2ncc3c(n2)-c2ccc(Cl)cc2C(c2c(F)cccc2OC)=NC3)ccc1C(=O)O [alisertib]
Summary of the method: as §1

[9] = compound: COc1cc2nc(-c3cc(F)ccc3O)nc(N[C@@H]3CNC[C@H]3C(C)(C)O)c2cc1OC
Summary of the method: as §1

[10] = compound: COc1cc2ncnc(Nc3ccc(F)c(Cl)c3)c2cc1OCCCN1CCOCC1 [gefitinib]
Summary of the method: as §1

Measured: log2 fold change

NFIC (UniProt P08651)
inactive: [1] -0.103 | [2] -0.104 | [3] 0.078 | [4] -0.153 | [5] -0.048 | [6] 0.121 | [7] -0.025 | [8] 0 | [9] -0.025 | [10] 0.117

NDUFB11 isoform 2 (UniProt Q9NX14)
inactive: [1] 0.035 | [2] 0.09 | [3] -0.003 | [4] 0.014 | [5] 0.048 | [6] 0 | [7] -0.087 | [8] 0.03 | [9] -0.021 | [10] -0.117

NHP2 (UniProt Q9NX24)
inactive: [1] -0.083 | [2] 0.001 | [3] -0.017 | [4] 0.024 | [5] -0.058 | [6] 0.079 | [7] -0.032 | [8] -0.03 | [9] 0.023 | [10] 0.03

NEK7 (UniProt Q8TDX7)
inactive: [1] -0.055 | [2] -0.113 | [4] 0.007 | [5] -0.013 | [6] 0 | [7] 0.003 | [8] 0.038 | [9] 0.057 | [10] -0.049
active: [3] 0.552

NENF (UniProt Q9UMX5)
inactive: [1] 0.03 | [2] 0.033 | [3] -0.03 | [4] 0.024 | [5] 0.01 | [6] -0.02 | [7] -0.002 | [8] 0.054 | [9] 0.018 | [10] 0.01

NEXN (UniProt Q0ZGT2)
inactive: [1] -0.102 | [2] -0.049 | [3] 0.026 | [4] 0.134 | [5] 0.158 | [6] -0.096 | [7] 0.044 | [8] 0.004 | [9] -0.086 | [10] 0.092

NDUFAF4 (UniProt Q9P032)
inactive: [1] 0.053 | [2] -0.008 | [3] -0.047 | [4] 0.011 | [5] -0.026 | [6] -0.015 | [7] -0.047 | [8] 0.023 | [9] -0.043 | [10] 0.006

NFATC2IP (UniProt Q8NCF5)
active: [7] -0.208
inactive: [1] -0.015 | [2] 0.002 | [3] 0.052 | [4] 0 | [5] 0.002 | [6] 0.003 | [8] -0.009 | [9] -0.001 | [10] 0.023

NDUFS8 (UniProt O00217)
inactive: [1] 0.038 | [2] 0.014 | [3] -0.033 | [4] 0.006 | [5] -0.03 | [6] 0.02 | [7] 0.061 | [8] 0.033 | [9] -0.083 | [10] -0.027

NFX1 (UniProt Q12986)
inactive: [1] 0.011 | [2] 0.05 | [3] -0.028 | [4] -0.046 | [5] -0.004 | [6] -0.13 | [7] 0.003 | [8] -0.045 | [9] -0.001 | [10] -0.093

NECTIN2 (UniProt Q92692)
inactive: [1] 0.024 | [2] 0.048 | [3] -0.006 | [4] 0.029 | [5] -0.027 | [6] -0.032 | [7] -0.06 | [8] -0.029 | [9] 0.033 | [10] 0.006

NDUFA7 (UniProt O95182)
inactive: [1] 0.002 | [2] 0.032 | [3] 0.001 | [4] 0.053 | [5] 0.023 | [6] -0.026 | [7] -0.127 | [8] 0.019 | [9] -0.073 | [10] 0.036

NIPBL (UniProt Q6KC79)
inactive: [1] -0.008 | [2] -0.183 | [3] -0.04 | [4] 0.006 | [5] 0 | [6] 0.008 | [7] 0.09 | [8] -0.066 | [9] 0.035 | [10] 0.027

2 neighbouring entries already listed, for reference:
NFX1 (UniProt Q12986)
inactive: [1] 0.011 | [2] 0.05 | [3] -0.028 | [4] -0.046 | [5] -0.004 | [6] -0.13 | [7] 0.003 | [8] -0.045 | [9] -0.001 | [10] -0.093

NECTIN2 (UniProt Q92692)
inactive: [1] 0.024 | [2] 0.048 | [3] -0.006 | [4] 0.029 | [5] -0.027 | [6] -0.032 | [7] -0.06 | [8] -0.029 | [9] 0.033 | [10] 0.006

Next part

NEDD1 isoform 3 (UniProt Q8NHV4)
inactive: [1] -0.03 | [2] -0.017 | [3] 0.073 | [4] 0.001 | [5] 0.005 | [6] 0.068 | [7] -0.034 | [8] -0.032 | [9] 0.02 | [10] 0.032

NDUFS2 (UniProt O75306)
inactive: [1] 0.047 | [2] -0.012 | [3] -0.033 | [4] 0.005 | [5] -0.001 | [6] 0.012 | [7] -0.045 | [8] -0.007 | [9] -0.022 | [10] -0.01
